Test results published in the supplement of paper PMC6143611.
Structures can show the parent of a compound that is named as a salt. ± gives the uncertainty stated by the source. The list shows a part of the results. Baselines shift from plate to plate; read single values as rough.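 A heat-shock-induced fluorescent stripe was set in larval rod outer segments at 6 dpf. Shedding distance ran from stripe to outer segment tip, measured by confocal stacks in about three fish per compound. Controls: 0.2% DMSO vehicle. Flagged compounds showed ≥20% change from same-week control, p < 0.001 (Dunnett test on mixed-effects models).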

Each molecule was assayed on Danio rerio larva rod photoreceptor outer segment (assay: rod outer segment growth distance Dg, difference from same-week DMSO control mean; higher = more outer segment growth). Settings: 20 µM; treatment time: 4 days (6-10 dpf).

Row | Compound | rod outer segment growth distance Dg [um]
1 | COc1cc(Nc2ncc(F)c(Nc3ccc4c(n3)N(COP(=O)(O)O)C(=O)C(C)(C)O4)n2)cc(OC)c1OC [Fostamatinib (R788)] | -1.89 ± 0.19
2 | CO[C@H]1O[C@@H]2O[C@@]3(C)CC[C@H]4[C@H](C)CC[C@@H]([C@H]1C)[C@@]24OO3 [Artemether] | -0.31 ± 0.19
3 | COc1cc(Nc2nc3ccccc3nc2NS(=O)(=O)c2ccc(NC(=O)c3ccc(C)c(OC)c3)cc2)cc(OC)c1 | -1.04 ± 0.21
4 | COc1ccc([C@]2(C#N)CC[C@@H](C(=O)O)CC2)cc1OC1CCCC1 [Cilomilast] | -0.26 ± 0.19
5 | C=C1[C@H](CO)[C@@H](O)C[C@@H]1n1cnc2c(=O)[nH]c(N)nc21 [Entecavir Hydrate] | -0.24 ± 0.33
6 | CC[C@H]1OC(=O)[C@H](C)[C@@H](O[C@H]2C[C@@](C)(OC)[C@@H](O)[C@H](C)O2)[C@H](C)[C@@H](O[C@@H]2O[C@H](C)C[C@H](N(C)C)[C@H]2O)[C@](C)(O)C[C@@H](C)C(=O)[C@H](C)[C@@H](O)[C@]1(C)O [Erythromycin] | -0.28 ± 0.24
7 | CN(CCOc1ccc(CC2SC(=O)NC2=O)cc1)c1ccccn1 (centres undefined) [Rosiglitazone] | -1.78 ± 0.24
8 | CCCCC(=O)N(Cc1ccc(-c2ccccc2-c2nnn[nH]2)cc1)[C@H](C(=O)O)C(C)C [Valsartan] | 1.03 ± 0.2
9 | CC(C)(C)c1cc(C(C)(C)C)c(NC(=O)c2c[nH]c3ccccc3c2=O)cc1O [Ivacaftor (VX-770)] | -2.18 ± 0.34
10 | NCCc1ccc(O)c(O)c1 [Dopamine HCl] | 0.26 ± 0.2
11 | COc1cc(F)c(C(C)C)cc1-c1ccc(C(F)(F)F)cc1CN1C(=O)O[C@H](c2cc(C(F)(F)F)cc(C(F)(F)F)c2)[C@@H]1C [Anacetrapib (MK-0859)] | -0.38 ± 0.14
12 | COc1cnc(NS(=O)(=O)c2ccc(N)cc2)nc1 [Sulfameter] | 0.05 ± 0.24
13 | O=C(O)C(=O)O.[NH-][C@@H]1CCCC[C@H]1[NH-].[Pt+2] [Oxaliplatin] | 0.33 ± 0.18
14 | CC(=O)O[C@@]12CO[C@@H]1C[C@H](O)[C@@]1(C)C(=O)[C@H](O)C3=C(C)[C@@H](OC(=O)[C@H](O)[C@@H](NC(=O)OC(C)(C)C)c4ccccc4)C[C@@](O)([C@@H](OC(=O)c4ccccc4)[C@H]21)C3(C)C [Docetaxel] | -0.61 ± 0.28
15 | CC(NC(=O)c1ccccc1/N=C/c1c(O)ccc2ccccc12)c1ccccc1 (centres undefined) [Sirtinol] | 0.11 ± 0.17
16 | COc1ccc(/C=C/C(=O)Nc2ccccc2C(=O)O)cc1OC [Tranilast] | -0.03 ± 0.26
17 | COc1nc(N)nc2c1ncn2[C@@H]1O[C@H](CO)[C@@H](O)[C@@H]1O [Nelarabine] | 0.34 ± 0.2
18 | Nc1[nH]cnc2ncnc1-2 [Adenine HCl] | 0.39 ± 0.24
19 | CCOC(=O)[C@H](CCc1ccccc1)N[C@@H](C)C(=O)N1C(=O)N(C)C[C@H]1C(=O)O [Imidapril HCl] | 0.42 ± 0.23
20 | C[C@@H]1C[C@H]2[C@@H]3CCC4=CC(=O)C=C[C@]4(C)[C@@]3(F)[C@@H](O)C[C@]2(C)[C@@]1(O)C(=O)CO [Dexamethasone (DHAP)] | 0.61 ± 0.15
21 | C[C@]12CCC(=O)C=C1CC[C@@H]1[C@@H]2[C@@H](O)C[C@@]2(C)[C@H]1CC[C@]2(O)C(=O)CO [Hydrocortisone] | 0.24 ± 0.29
22 | CC(C)n1nc(-c2cc3cc(O)ccc3[nH]2)c2c(N)ncnc21 | 0.16 ± 0.23
23 | O=C(O)COCCN1CCN(C(c2ccccc2)c2ccc(Cl)cc2)CC1 (centres undefined) [Cetirizine DiHCl] | -0.28 ± 0.16
24 | CO[C@H]1C[C@@H]2CC[C@@H](C)[C@@](O)(O2)C(=O)C(=O)N2CCCC[C@H]2C(=O)O[C@H]([C@H](C)C[C@@H]2CC[C@@H](OC(=O)C(C)(CO)CO)[C@H](OC)C2)CC(=O)[C@H](C)/C=C(\C)[C@@H](O)[C@@H](OC)C(=O)[C@H](C)C[C@H](C)/C=C/C=C/C=C/1C | -0.82 ± 0.09
25 | CN(C)C(=O)C(CCN1CCC(O)(c2ccc(Cl)cc2)CC1)(c1ccccc1)c1ccccc1 [Loperamide HCl] | 0.99 ± 0.3
26 | Cc1cc(NC(=O)Nc2ccc(N(C)C)cc2)c2cc(F)cc(F)c2n1 | -0.49 ± 0.15
27 | CN1C(C(=O)Nc2ccccn2)=C(O)c2ccccc2S1(=O)=O [Piroxicam] | 1.19 ± 0.3
28 | C[C@H](Cc1cc2c(c(C(N)=O)c1)N(CCCO)CC2)NCCOc1ccccc1OCC(F)(F)F [Silodosin] | 0.58 ± 0.17
29 | C[C@H]1O[C@@H](n2cc(F)c(=O)[nH]c2=O)[C@H](O)[C@@H]1O [Doxifluridine] | 0.28 ± 0.26

Quoted from the listing.
CC(C)n1nc(-c2cc3cc(O)ccc3[nH]2)c2c(N)ncnc21 – rod outer segment growth distance Dg [um]: 0.16 ± 0.23
COc1cc(Nc2ncc(F)c(Nc3ccc4c(n3)N(COP(=O)(O)O)C(=O)C(C)(C)O4)n2)cc(OC)c1OC [Fostamatinib (R788)] – rod outer segment growth distance Dg [um]: -1.89 ± 0.19
